According to patent US20180079819A1:
No constants are given. Whether binding was seen depends on the method and setting. Tags and fused reporters may be left off the sequences shown.

Target: T1, extracellular domain of the control GMRα protein (residues 1-325), histidine tagged (UniProt P15509)
T1 sequence (looked up): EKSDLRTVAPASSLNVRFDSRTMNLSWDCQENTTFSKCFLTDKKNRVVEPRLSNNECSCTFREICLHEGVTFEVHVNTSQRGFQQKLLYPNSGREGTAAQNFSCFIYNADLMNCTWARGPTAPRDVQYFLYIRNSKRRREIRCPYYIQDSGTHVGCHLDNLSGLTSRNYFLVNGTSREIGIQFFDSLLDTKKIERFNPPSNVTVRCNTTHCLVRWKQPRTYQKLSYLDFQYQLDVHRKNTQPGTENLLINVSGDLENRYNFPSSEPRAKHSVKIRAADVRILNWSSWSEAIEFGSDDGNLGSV
Assay: ELISA on plate-coated His-tagged protein, A450

B1: chCD123-3 (antibody, human IgG1, V domains shown)
VH: EFQLQQSGPEVVKPGASVKMSCKASGYTFTSYVMHWMKQKPGQGLEWIGYIKPYKDGTKYNEKFKGKATLISDKPSSTAYMELSSLTSEDSAVYYCAREGENGYYDAMDYWGQGTSVTVSS
VL: DIQMTQSPSSLSASLGGKVTITCKASQDINKYIAWYQHKPGKGPRLLIHYTSTLQPGIPSRFSGSGSGRDYSFSISNLEPEDIATYYCLQYDNLLYTFGGGTKLELKR
  binding: no binding (tested: 1e-7 M)

B2: chCD123-14 (antibody, V domains shown)
VH: EVKLVESGGDLVKPGGSLKLSCAASGFTFSNYAMSWVRQNSEKRLEWVATINSGGSFTYYPDSVKGRFTISRDNAKDSLYLQMSSLNSEDTAMYYCARQSEAYYGYDKRTWFAYWGQGTLVTVSS
VL: DILLTQSPAILSVSPGTRVSFSCRASQSVGTSIHWYQQRPNGFPRLLIKYASESISGIPSRFSGSGSGTDFTLNINSVESEDIADYYCQQSKSWPLTFGAGTKLELKR
  binding: no binding (tested: 1e-7 M)
